{
  "source": "PubChem BioAssay AID1347423",
  "about": "(Functional Genomics Laboratory (NCATS/FGL), 2020)",
  "note": "The whole screen tested about 52,000 sequences, of which about 210 (0.4%) were called active.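 Rule for the calls: active = gene whose silencing raises cell survival under the drug, median off-target-corrected z-score across its silencing RNAs 2 or more; inactive = the rest.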 The list shows a part of the results.",
  "data": [
    {"assay": "Resistance to Poly (ADP-Ribose) Polymerase inhibitor: Gene Identification via Genome-wide siRNA Screen", "details": "mouse BRCA2 R2336H ES cells, olaparib, CellTiter-Glo viability; active compounds read high", "outline": "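Genome-wide siRNA screen (3 siRNAs/gene, 20 nM) in mouse ES cells carrying hypomorphic BRCA2 R2336H; olaparib 500 nM added 48 h post-transfection, CellTiter-Glo viability 72 h later. Normalized to plate-median negative control; MAD z-scores, gene median, seed-adjusted.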", "values": [
      {"sequence": "CCACCUUUCGUUGUUACAATT against Stk36", "z-score": "inactive: -1.14"},
      {"sequence": "GGUGACAUUUGAAAAUGUCTT against Slc25a12", "z-score": "inactive: 0.652"},
      {"sequence": "GGCAUCUUUGGAGACUGGUTT against Sycn", "z-score": "inactive: -0.929"},
      {"sequence": "CCGAGUGGUGAGUCUUCUUTT against Olfr629", "z-score": "inactive: -0.272"},
      {"sequence": "GCAGAGCGGUAAUCUAUCUTT against 5031410I06Rik", "z-score": "inactive: 1.14"},
      {"sequence": "CCUCUCCUCUAUUCAACACTT against Olfr472", "z-score": "inactive: 1.48"},
      {"sequence": "GGCCAAAAAUGAAAGAAAUTT against Myo15", "z-score": "inactive: -0.962"},
      {"sequence": "CCCUGUUGCUGACAUUUAUTT against Wasf3", "z-score": "inactive: -0.166"},
      {"sequence": "GGUUGACACUCUGAGGGAATT against Pld2", "z-score": "inactive: -0.618"},
      {"sequence": "GGUCUAUCGCUUGCUUUUUTT against Abca2", "z-score": "inactive: -0.086"},
      {"sequence": "GGUAGAACAACAGAACAAUTT against Myo5b", "z-score": "inactive: -0.895"},
      {"sequence": "GGACCUUUUGUCUAUAAUGTT against Arl7", "z-score": "inactive: -1.84"},
      {"sequence": "CCACUUCAGUAUUUGGCUUTT against T2R37", "z-score": "inactive: -0.456"},
      {"sequence": "GGGUCAUGAAGUGAUGGUUTT against AI788959", "z-score": "inactive: 1.41"},
      {"sequence": "CGGAUUCGUCUGUUUUCUGTT against Ddi2", "z-score": "inactive: 0.806"},
      {"sequence": "GCUGAGAGGUAAAGACACATT against 1700051C09Rik", "z-score": "inactive: -0.623"},
      {"sequence": "GGAACGUAAACUAAGCCCGTT against Foxb1", "z-score": "inactive: 1.01"},
      {"sequence": "GGAAUACGUAUACUUCAGCTT against B230399E16Rik", "z-score": "inactive: 1.37"},
      {"sequence": "GGAGAGAGACACAAGCUUGTT against BC019977", "z-score": "inactive: 0.55"},
      {"sequence": "GGGUUAGAGUAAGGUAUUATT against Tsn", "z-score": "inactive: -0.569"},
      {"sequence": "GCAGUUAUUCUGAGAGUGATT against Olfr1385", "z-score": "inactive: -0.193"},
      {"sequence": "GGAAGAUGACAAGAUCUAUTT against 2810428C21Rik", "z-score": "inactive: -1.12"},
      {"sequence": "GGGACAAAACCUUGAUGGUTT against V1rh3", "z-score": "inactive: 0.22"},
      {"sequence": "GGAAUAAUUUCACUGACUUTT against Hint3", "z-score": "inactive: -0.796"},
      {"sequence": "GGAUAACAGAGAUUUCUCCTT against Il15ra", "z-score": "inactive: 1.29"},
      {"sequence": "GGGUUUGGGCUUCAACAUCTT against Lin7b", "z-score": "inactive: 0.799"},
      {"sequence": "GCAUCAACAAUCAAAGUUGTT against Sema3c", "z-score": "inactive: -0.0674"},
      {"sequence": "GCAAUUGUCAUUAGUUUUGTT against 4432416J03Rik", "z-score": "inactive: 0.589"},
      {"sequence": "GCAUCGUCUAUCAGCUGAUTT against Rraga", "z-score": "inactive: 0.662"},
      {"sequence": "GGCAUGAGACAAGCUAGUCTT against Mrgpre", "z-score": "inactive: -1.04"},
      {"sequence": "CCCAAACAGACUAGAUCCGTT against Rab20", "z-score": "inactive: -1.16"},
      {"sequence": "GUCUGAACUUCUUAGCAUCTT against Uchl4", "z-score": "inactive: 0.101"},
      {"sequence": "GGCAGAUUCAGACCUUCGATT against Sult1c2", "z-score": "inactive: -0.055"},
      {"sequence": "GGAUCGUAGCUACAGCCAATT against AA691260", "z-score": "inactive: 0.588"},
      {"sequence": "GCAUCACACAGAAUAUGUUTT against F10", "z-score": "inactive: -0.688"},
      {"sequence": "GCCAUUAUGACAGAACGCATT against Adra1d", "z-score": "inactive: 1.93"},
      {"sequence": "GGAUAACCUAAUGUAGAUATT against Nphs2", "z-score": "inactive: 1.1"},
      {"sequence": "GGAGAGAAAGAAGUUGUUGTT against Lcn5", "z-score": "inactive: 2.43"},
      {"sequence": "CGAGGGCCUGAAAAACCUGTT against Hbb-b2", "z-score": "inactive: -1.17"},
      {"sequence": "GGUCAUGGAUCAGAAAGAATT against Hnrpd", "z-score": "inactive: -0.934"},
      {"sequence": "GGUUCUCACGCGGUUUUUGTT against D430024F16Rik", "z-score": "inactive: 0.6"},
      {"sequence": "GCAGAGGUACGUGUUUGACTT against Gdf5", "z-score": "inactive: -0.0517"},
      {"sequence": "GGCGAGAACAGUUUGAGUUTT against 1700111A04Rik", "z-score": "inactive: -0.414"},
      {"sequence": "GGCUAUGCAAUACCAGGUCTT against BC004012", "z-score": "inactive: -0.51"},
      {"sequence": "GGACCACUCUGAUGAAGAGTT against Pou3f4", "z-score": "inactive: -2.16"},
      {"sequence": "GGAUGAGGACAAGUGCUCUTT against Agpat4", "z-score": "inactive: 0.0493"},
      {"sequence": "GCACAAAAUUCACUGUUAGTT against Olfr112", "z-score": "inactive: 2.16"},
      {"sequence": "GGCUAGUACCAACAUGACCTT against 1600015I10Rik", "z-score": "inactive: 2.25"},
      {"sequence": "GGAGGAGACUCAGCAGAUUTT against Gzmn", "z-score": "inactive: -1.95"},
      {"sequence": "GGCUUGGUGGGACAGAUAUTT against 5730568A12Rik", "z-score": "inactive: -1.4"},
      {"sequence": "CGUAAUGCAUUACCUCAAUTT against 9630019K15Rik", "z-score": "inactive: -0.645"},
      {"sequence": "GGACAGCCAGUAAAUACAUTT against Igsf7", "z-score": "inactive: 1.26"},
      {"sequence": "GGAGAAUUAGCCAACACAGTT against Ywhah", "z-score": "inactive: 1.03"},
      {"sequence": "GGAUUUCAAGCAAGAUUACTT against Mfn1", "z-score": "inactive: -0.00662"},
      {"sequence": "GCCUCUGAGAUAAAAUUUGTT against Copeb", "z-score": "inactive: -0.419"},
      {"sequence": "CGAUUGCUUUUCGAGACUGTT against Olfr1404", "z-score": "inactive: -1.63"},
      {"sequence": "GGUUAAAACCUCUUUCUGATT against 2610017G09Rik", "z-score": "inactive: 0.85"},
      {"sequence": "GGGACUACCUGAAUAAUGUTT against Tm4sf12", "z-score": "inactive: 0.6"},
      {"sequence": "GCCGGGUUCGAGAGUUAAGTT against Ptpn11", "z-score": "inactive: -0.376"},
      {"sequence": "GGUGUUGAACAAAUUAACUTT against LOC226169", "z-score": "inactive: 1.93"},
      {"sequence": "GAACAUGGAAAGCAGCAUUTT against Sprrl10", "z-score": "inactive: 0.471"},
      {"sequence": "CCUUUGUGCAAUGCUACACTT against 4921517D21Rik", "z-score": "inactive: 0.593"},
      {"sequence": "GGAUCAGCAUGUUUGGAUUTT against Olfr653", "z-score": "inactive: -0.23"},
      {"sequence": "GCUCCAAGUCAAGGAAAAUTT against 6030423D04Rik", "z-score": "inactive: -2.53"},
      {"sequence": "GCACUUUAAAAGAAUCACUTT against Slc2a12", "z-score": "inactive: -0.238"},
      {"sequence": "GGAGAGACACUUUUUGAAATT against 4932413O14Rik", "z-score": "inactive: 0.201"}
    ]}
  ]
}
